# Reference: the supplement of paper PMC8728848
# The other results are listed elsewhere or left out.
# B1: NanH (Corynebacterium diphtheriae), C6JSW6 (protein)
# chain: MYSSNRTYSRAILGLSAVLTLSFTSLVAPVNAEEPETVVPATAELEGEVAATLPSAETGLLDAAPPKPVARGAAGDLQLPAVNEKEVFEEGRVIRAPEPDQSRCYRIPALVTAKNGDLLLAFDNRYGGGDGAKTWCRDAPYENMKRINRQNMQTDIQLYRSVDNGQSFEDFGYIAQGTADVRELSYTDPALVTDRTTGKIFAFFVRAYDYRVGQSSAGFNEGDVEAEIQKRDVQDTVVVESLDGGQTWGNMRLLSALTAKVSSISTGDTIFDGRGRFVTSGAGIQLQYGEHAGRLIVPISVDIDPKDSAKFINLAIYSDDHGQTWQAGIGTAGGAGFSGDVSKIVELSDGRLMMSSKDNDKPRWVSYSEDQGENWSTPKRKIIAPPQHPEKHNTGINVGLIRAYPNAPENSAAARVLLYSAPIDQRYSHKHTEDGRNNGWVMGSCDDGKTWSFGRQIEKNRFQYSSMTVMSDGNIGMVYESGDFSTGMNLKFAKFNMAWLGADCHSNEALGLTGDIDKEIVEAQEKAAEATKEAQEAAEKVQKLTEELAAARKENDELKNQVKGFKEAVGDLANEAEDLADKVFKLETAVTEAKEKATVAEKAASDAVTQLQKAESIAEEQKAKAESAAAEAQALREKLERLEGSILTVKENPEAEEIADLSSTAKDAADAARRAATDANGALSGQKQDEEKPAMGLMGILKVLAGIIPLVAIIATIFQTFRLPFNIPGMR
# How the values were obtained:
# Assay in all cases: glycan array binding signal (z-score within array); higher = stronger binding
# Conditions in all cases: glycan notation: IUPAC condensed, linker removed
# [1] = target: Gal(b1-4)GlcNAc(b1-2)Man(a1-3)[Gal(b1-4)GlcNAc(b1-2)Man(a1-6)]Man(b1-4)GlcNAc(b1-4)GlcNAc
# How it was run: (§1)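 The Consortium for Functional Glycomics database supplied 3228 glycan arrays, of which those lacking an available protein sequence were dropped. The binding signal, a within-array Z-score, was averaged across arrays of the same protein sequence and across linkers. Negative scores can be read as non-binding.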
# [2] = target: Gal(b1-4)GlcNAc(b1-2)Man(a1-3)[Gal(b1-4)GlcNAc(b1-2)Man(a1-6)]Man(b1-4)GlcNAc(b1-4)[Fuc(a1-6)]GlcNAc
# How it was run: as §1
# [3] = target: Gal(b1-4)GlcNAc(b1-2)Man(a1-3)[Gal(b1-4)GlcNAc(b1-2)][GlcNAc(b1-4)]Man(b1-4)GlcNAc(b1-4)GlcNAc
# How it was run: as §1
# [4] = target: Gal(b1-4)GlcNAc(b1-2)Man(a1-3)[GlcNAc(b1-2)Man(a1-6)]Man(b1-4)GlcNAc(b1-4)GlcNAc
# How it was run: as §1
# [5] = target: Gal(b1-4)GlcNAc(b1-2)Man(a1-3)[Man(a1-6)]Man(b1-4)GlcNAc(b1-4)GlcNAc
# How it was run: as §1
# [6] = target: Gal(b1-4)GlcNAc(b1-2)Man(a1-6)Man(b1-4)GlcNAc(b1-4)GlcNAc
# How it was run: as §1
# [7] = target: Gal(b1-4)GlcNAc(b1-2)Man(a1-6)[GlcNAc(b1-2)Man(a1-3)]Man(b1-4)GlcNAc(b1-4)GlcNAc
# How it was run: as §1
# [8] = target: Gal(b1-4)GlcNAc(b1-2)Man(a1-6)[Man(a1-3)]Man(b1-4)GlcNAc(b1-4)GlcNAc
# How it was run: as §1
# [9] = target: Gal(b1-4)GlcNAc(b1-2)[Gal(b1-4)GlcNAc(b1-4)]Man(a1-3)[Gal(b1-4)GlcNAc(b1-2)Man(a1-6)]Man(b1-4)GlcNAc(b1-4)GlcNAc
# How it was run: as §1
# [10] = target: Gal(b1-4)GlcNAc(b1-2)[Gal(b1-4)GlcNAc(b1-4)]Man(a1-3)[Gal(b1-4)GlcNAc(b1-2)[Gal(b1-4)GlcNAc(b1-6)]Man(a1-6)]Man(b1-4)GlcNAc(b1-4)GlcNAc
# How it was run: as §1
# [11] = target: Gal(b1-4)GlcNAc(b1-2)[Gal(b1-4)GlcNAc(b1-4)]Man(a1-3)[GlcNAc(b1-4)][Gal(b1-4)GlcNAc(b1-2)Man(a1-6)]Man(b1-4)GlcNAc(b1-4)GlcNAc
# How it was run: as §1
# [12] = target: Gal(b1-4)GlcNAc(b1-2)[Gal(b1-4)GlcNAc(b1-4)]Man(a1-3)[GlcNAc(b1-4)][Gal(b1-4)GlcNAc(b1-2)[Gal(b1-4)GlcNAc(b1-6)]Man(a1-6)]Man(b1-4)GlcNAc(b1-4)GlcNAc
# How it was run: as §1
# [13] = target: Gal(b1-4)GlcNAc(b1-2)[Gal(b1-4)GlcNAc(b1-6)]Man(a1-6)[Gal(b1-4)GlcNAc(b1-2)Man(a1-3)]Man(b1-4)GlcNAc(b1-4)GlcNAc
# How it was run: as §1
# [14] = target: Gal(b1-4)GlcNAc(b1-2)[Gal(b1-4)GlcNAc(b1-6)]Man(a1-6)[GlcNAc(b1-4)][Gal(b1-4)GlcNAc(b1-2)Man(a1-3)]Man(b1-4)GlcNAc(b1-4)GlcNAc
# How it was run: as §1
# [15] = target: Gal(b1-4)GlcNAc(b1-3)Gal(b1-3)GlcNAc
# How it was run: as §1
# [16] = target: Gal(b1-4)GlcNAc(b1-3)Gal(b1-4)Glc
# How it was run: as §1
# [17] = target: Gal(b1-4)GlcNAc(b1-3)Gal(b1-4)GlcNAc
# How it was run: as §1
# [18] = target: Gal(b1-4)GlcNAc(b1-3)Gal(b1-4)GlcNAc(b1-3)Gal(b1-4)GlcNAc
# How it was run: as §1
# [19] = target: Gal(b1-4)GlcNAc(b1-3)Gal(b1-4)[Fuc(a1-3)GlcNAc(b1-6)]Gal(b1-4)Glc
# How it was run: as §1
# [20] = target: Gal(b1-4)GlcNAc(b1-3)Gal(b1-4)[Fuc(a1-3)]GlcNAc(b1-3)Gal(b1-4)[Fuc(a1-3)]GlcNAc
# How it was run: as §1
# [21] = target: Gal(b1-4)GlcNAc(b1-3)GalNAc
# How it was run: as §1
# [22] = target: Gal(b1-4)GlcNAc(b1-3)[Gal(b1-4)GlcNAc(b1-6)]Gal(b1-4)GlcNAc
# How it was run: as §1
# [23] = target: Gal(b1-4)GlcNAc(b1-3)[Gal(b1-4)GlcNAc(b1-6)]GalNAc
# How it was run: as §1
# [24] = target: Gal(b1-4)GlcNAc(b1-3)[GlcNAc(b1-6)]Gal(b1-4)GlcNAc
# How it was run: as §1
# [25] = target: Gal(b1-4)GlcNAc(b1-6)Gal(b1-4)GlcNAc
# How it was run: as §1
# [26] = target: Gal(b1-4)GlcNAc(b1-6)GalNAc
# How it was run: as §1
# [27] = target: Gal(b1-4)GlcNAc(b1-6)[Gal(b1-3)]GalNAc
# How it was run: as §1
# Gal(b1-6)Gal = target: Gal(b1-6)Gal
# How it was run: as §1
# Gal3S(b1-3)GalNAc = target: Gal3S(b1-3)GalNAc
# How it was run: as §1
# Gal3S(b1-3)GlcNAc = target: Gal3S(b1-3)GlcNAc
# How it was run: as §1
binder,measurement,setting,value
B1,glycan array binding signal (z-score),[1],-0.444
same,glycan array binding signal (z-score),[2],2.29
same,glycan array binding signal (z-score),[3],0.075
same,glycan array binding signal (z-score),[4],-1.54
same,glycan array binding signal (z-score),[5],-0.033
same,glycan array binding signal (z-score),[6],-1.02
same,glycan array binding signal (z-score),[7],0.021
same,glycan array binding signal (z-score),[8],0.04
same,glycan array binding signal (z-score),[9],1.1
same,glycan array binding signal (z-score),[10],1.4
same,glycan array binding signal (z-score),[11],0.424
same,glycan array binding signal (z-score),[12],0.456
same,glycan array binding signal (z-score),[13],0.523
same,glycan array binding signal (z-score),[14],-0.13
same,glycan array binding signal (z-score),[15],1.02
same,glycan array binding signal (z-score),[16],-0.867
same,glycan array binding signal (z-score),[17],-0.499
same,glycan array binding signal (z-score),[18],1.39
same,glycan array binding signal (z-score),[19],1.09
same,glycan array binding signal (z-score),[20],-0.261
same,glycan array binding signal (z-score),[21],-0.141
same,glycan array binding signal (z-score),[22],-0.376
same,glycan array binding signal (z-score),[23],-0.696
same,glycan array binding signal (z-score),[24],-1.14
same,glycan array binding signal (z-score),[25],1.11
same,glycan array binding signal (z-score),[26],-0.974
same,glycan array binding signal (z-score),[27],-1.06
same,glycan array binding signal (z-score),Gal(b1-6)Gal,-0.464
same,glycan array binding signal (z-score),Gal3S(b1-3)GalNAc,0.752
same,glycan array binding signal (z-score),Gal3S(b1-3)GlcNAc,0.008

# Reformatted bar-delimited: entries from further up.
binder | measurement | setting | value
B1 | glycan array binding signal (z-score) | [3] | 0.075
same | glycan array binding signal (z-score) | [4] | -1.54
